Measured values taken from PMC8782888.
These are yes or no findings as the source states them, for the method shown. In cells and extracts the contact can be indirect.

Chains of the proteins cited; added tags and fusions are not shown.
UniProt P35240: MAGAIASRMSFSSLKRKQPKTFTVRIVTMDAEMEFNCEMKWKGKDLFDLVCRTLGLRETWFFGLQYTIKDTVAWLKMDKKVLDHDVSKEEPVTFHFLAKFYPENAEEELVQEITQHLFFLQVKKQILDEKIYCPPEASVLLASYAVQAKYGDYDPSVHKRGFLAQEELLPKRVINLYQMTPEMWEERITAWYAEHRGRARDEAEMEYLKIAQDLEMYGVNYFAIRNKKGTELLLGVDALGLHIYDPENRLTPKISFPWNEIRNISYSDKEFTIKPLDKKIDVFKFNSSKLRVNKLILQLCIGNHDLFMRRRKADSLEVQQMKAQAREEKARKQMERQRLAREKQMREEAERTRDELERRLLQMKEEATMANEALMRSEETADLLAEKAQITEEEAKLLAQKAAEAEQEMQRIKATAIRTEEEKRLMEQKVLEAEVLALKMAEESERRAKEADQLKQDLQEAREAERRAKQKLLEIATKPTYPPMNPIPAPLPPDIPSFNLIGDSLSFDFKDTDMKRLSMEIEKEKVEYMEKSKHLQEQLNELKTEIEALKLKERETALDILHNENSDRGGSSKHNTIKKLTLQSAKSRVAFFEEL

Target: T1, RICH1 (UniProt Q68EM7)
T1 sequence: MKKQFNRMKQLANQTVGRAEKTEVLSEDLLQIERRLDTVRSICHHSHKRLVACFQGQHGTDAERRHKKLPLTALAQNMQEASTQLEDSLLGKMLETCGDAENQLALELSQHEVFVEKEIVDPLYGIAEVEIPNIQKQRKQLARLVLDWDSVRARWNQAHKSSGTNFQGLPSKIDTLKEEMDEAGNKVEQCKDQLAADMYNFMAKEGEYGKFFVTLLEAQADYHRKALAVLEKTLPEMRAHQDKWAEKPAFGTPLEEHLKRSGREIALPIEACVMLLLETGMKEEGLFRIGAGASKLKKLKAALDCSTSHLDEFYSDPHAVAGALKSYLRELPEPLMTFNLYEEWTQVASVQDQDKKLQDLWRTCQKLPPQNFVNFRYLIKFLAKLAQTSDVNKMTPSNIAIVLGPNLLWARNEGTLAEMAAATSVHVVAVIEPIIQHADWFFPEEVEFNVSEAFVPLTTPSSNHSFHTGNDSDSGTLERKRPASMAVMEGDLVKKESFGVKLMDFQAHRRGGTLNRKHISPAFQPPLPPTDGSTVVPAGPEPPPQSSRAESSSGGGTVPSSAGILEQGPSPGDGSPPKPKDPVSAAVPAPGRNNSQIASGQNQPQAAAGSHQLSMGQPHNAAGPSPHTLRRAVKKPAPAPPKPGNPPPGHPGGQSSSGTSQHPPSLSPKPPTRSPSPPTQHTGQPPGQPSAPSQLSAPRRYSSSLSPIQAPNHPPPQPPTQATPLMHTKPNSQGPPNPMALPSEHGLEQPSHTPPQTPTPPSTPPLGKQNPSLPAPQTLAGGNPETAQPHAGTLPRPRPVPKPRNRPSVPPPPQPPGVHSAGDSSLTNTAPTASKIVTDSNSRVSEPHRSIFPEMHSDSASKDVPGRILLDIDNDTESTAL
Experiment: co-IP; BT549 lysates (parental, control, RICH1- or RICH1△BAR-overexpressing cells); NP-40 lysis buffer (20 mM Tris-HCl, 150 mM NaCl, 0.5% NP-40, 20% glycerol); 4 μg antibody and 50 μl protein A/G magnetic beads; western blotting

binding: no binding
Substance: Merlin (from UniProt P35240 1-595)
